Test results reported in the supplement of paper PMC12819154, “High-throughput peptide-centric local stability assay extends protein–ligand identification to membrane proteins, tissues and bacteria” (Nature Structural & Molecular Biology, 2025).
The list shows a part of the results. Most values lie at the level of the controls, where differences are scatter.

The chains behind the UniProt entries cited, without tags or fusion partners. Where a name states a change or a piece, a line headed by the entry shows the natural chain unless it says otherwise.
UniProt Q3UMU9: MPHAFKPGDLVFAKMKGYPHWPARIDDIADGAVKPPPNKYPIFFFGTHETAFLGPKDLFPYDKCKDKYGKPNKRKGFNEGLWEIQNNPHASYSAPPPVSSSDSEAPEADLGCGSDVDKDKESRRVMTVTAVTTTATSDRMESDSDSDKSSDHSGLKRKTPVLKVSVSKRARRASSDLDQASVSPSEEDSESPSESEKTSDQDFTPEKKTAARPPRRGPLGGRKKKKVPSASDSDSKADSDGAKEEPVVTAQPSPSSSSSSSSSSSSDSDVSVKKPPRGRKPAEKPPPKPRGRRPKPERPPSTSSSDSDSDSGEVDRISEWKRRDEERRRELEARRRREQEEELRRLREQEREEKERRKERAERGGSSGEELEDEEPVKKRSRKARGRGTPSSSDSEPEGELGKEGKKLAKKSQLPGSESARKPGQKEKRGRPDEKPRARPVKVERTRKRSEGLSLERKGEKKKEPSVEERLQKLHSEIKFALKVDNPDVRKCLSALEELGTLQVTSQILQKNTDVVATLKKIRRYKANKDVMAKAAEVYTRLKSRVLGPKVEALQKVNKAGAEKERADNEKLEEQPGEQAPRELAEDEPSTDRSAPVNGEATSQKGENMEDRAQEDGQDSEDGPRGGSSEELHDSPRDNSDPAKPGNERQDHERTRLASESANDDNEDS
UniProt Q00422: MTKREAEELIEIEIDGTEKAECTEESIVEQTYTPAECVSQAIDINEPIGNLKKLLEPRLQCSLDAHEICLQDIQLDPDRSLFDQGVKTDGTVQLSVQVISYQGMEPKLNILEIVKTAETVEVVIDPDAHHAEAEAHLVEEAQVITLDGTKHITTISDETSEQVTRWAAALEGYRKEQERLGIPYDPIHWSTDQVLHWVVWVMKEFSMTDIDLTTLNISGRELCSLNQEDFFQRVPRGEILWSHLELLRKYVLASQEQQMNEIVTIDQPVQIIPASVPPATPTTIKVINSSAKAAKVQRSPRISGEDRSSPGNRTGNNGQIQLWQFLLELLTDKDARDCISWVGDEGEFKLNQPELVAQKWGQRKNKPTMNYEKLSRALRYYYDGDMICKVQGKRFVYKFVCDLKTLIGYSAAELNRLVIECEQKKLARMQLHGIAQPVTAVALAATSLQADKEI
UniProt Q3TC93: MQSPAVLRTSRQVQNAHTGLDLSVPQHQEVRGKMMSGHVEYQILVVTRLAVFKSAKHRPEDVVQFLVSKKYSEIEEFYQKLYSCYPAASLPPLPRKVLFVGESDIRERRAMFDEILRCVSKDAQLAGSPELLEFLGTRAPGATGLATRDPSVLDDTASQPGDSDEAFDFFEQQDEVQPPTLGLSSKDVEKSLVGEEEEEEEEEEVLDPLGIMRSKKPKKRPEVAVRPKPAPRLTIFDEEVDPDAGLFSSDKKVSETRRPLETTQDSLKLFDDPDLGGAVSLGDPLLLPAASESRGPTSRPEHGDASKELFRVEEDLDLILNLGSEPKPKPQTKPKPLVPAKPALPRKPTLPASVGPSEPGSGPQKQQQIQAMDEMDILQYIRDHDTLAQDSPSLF
UniProt Q08879: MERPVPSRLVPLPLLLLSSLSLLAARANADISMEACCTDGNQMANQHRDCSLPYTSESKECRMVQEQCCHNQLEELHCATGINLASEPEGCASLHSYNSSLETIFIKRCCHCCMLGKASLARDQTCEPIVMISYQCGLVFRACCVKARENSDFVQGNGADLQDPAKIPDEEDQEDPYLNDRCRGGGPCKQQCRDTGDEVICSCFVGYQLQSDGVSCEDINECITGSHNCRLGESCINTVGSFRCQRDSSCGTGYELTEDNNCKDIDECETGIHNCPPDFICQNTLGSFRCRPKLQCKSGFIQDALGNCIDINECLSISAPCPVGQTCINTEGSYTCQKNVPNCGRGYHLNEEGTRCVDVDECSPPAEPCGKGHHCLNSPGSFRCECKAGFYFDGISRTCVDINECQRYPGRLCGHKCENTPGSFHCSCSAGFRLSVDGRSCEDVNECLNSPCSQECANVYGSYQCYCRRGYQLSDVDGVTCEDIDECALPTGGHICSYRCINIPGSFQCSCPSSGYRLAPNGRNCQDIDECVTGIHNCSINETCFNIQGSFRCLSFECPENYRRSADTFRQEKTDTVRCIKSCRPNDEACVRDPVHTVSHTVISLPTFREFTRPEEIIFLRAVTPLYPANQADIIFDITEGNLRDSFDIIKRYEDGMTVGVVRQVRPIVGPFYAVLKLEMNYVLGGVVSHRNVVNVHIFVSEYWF
UniProt Q148V8: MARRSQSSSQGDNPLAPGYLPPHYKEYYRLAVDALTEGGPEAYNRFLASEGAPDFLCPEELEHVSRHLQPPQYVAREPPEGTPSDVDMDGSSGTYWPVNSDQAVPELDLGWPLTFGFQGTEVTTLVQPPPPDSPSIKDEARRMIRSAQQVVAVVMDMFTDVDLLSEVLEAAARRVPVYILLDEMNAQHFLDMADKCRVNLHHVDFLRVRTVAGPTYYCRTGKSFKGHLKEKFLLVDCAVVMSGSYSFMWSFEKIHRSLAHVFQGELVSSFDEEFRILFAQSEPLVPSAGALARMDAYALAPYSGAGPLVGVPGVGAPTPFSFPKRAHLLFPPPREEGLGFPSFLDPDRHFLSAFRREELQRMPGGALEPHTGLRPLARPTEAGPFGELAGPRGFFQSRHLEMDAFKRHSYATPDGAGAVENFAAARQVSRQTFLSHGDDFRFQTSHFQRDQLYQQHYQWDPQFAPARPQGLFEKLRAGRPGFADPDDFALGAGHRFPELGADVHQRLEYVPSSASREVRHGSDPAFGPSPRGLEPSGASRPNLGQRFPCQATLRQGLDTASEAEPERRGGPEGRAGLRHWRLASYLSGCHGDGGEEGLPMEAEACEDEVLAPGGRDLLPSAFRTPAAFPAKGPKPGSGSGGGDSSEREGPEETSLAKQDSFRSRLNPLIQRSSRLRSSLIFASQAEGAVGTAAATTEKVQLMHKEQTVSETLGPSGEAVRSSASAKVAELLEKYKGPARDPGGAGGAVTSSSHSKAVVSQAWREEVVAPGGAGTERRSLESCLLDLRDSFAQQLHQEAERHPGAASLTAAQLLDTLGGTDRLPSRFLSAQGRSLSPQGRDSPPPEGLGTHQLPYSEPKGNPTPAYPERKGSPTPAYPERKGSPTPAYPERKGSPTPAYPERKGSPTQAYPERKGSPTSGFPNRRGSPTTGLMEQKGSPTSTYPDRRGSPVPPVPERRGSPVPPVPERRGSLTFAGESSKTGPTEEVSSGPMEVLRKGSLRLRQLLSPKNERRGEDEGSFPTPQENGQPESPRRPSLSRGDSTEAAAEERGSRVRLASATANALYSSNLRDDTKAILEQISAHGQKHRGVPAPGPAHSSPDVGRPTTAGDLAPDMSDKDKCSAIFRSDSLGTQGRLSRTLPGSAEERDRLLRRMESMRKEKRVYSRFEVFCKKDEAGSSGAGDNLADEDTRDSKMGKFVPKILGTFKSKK
UniProt Q3TC72: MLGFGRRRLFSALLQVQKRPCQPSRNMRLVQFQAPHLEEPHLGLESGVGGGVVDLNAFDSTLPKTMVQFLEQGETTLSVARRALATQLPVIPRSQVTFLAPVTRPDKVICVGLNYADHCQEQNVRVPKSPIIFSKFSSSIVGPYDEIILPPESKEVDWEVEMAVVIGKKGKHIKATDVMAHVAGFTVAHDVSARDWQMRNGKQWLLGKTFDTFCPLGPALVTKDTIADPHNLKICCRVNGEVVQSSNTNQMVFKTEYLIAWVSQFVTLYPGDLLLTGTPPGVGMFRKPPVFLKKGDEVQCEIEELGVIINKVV
UniProt Q3TC33: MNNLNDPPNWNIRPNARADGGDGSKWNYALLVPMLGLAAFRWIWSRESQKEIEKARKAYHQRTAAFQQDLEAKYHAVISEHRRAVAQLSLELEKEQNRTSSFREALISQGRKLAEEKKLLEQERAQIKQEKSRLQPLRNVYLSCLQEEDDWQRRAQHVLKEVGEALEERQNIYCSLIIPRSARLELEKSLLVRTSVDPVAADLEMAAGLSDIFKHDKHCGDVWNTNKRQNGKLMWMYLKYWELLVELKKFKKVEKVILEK
UniProt Q05920: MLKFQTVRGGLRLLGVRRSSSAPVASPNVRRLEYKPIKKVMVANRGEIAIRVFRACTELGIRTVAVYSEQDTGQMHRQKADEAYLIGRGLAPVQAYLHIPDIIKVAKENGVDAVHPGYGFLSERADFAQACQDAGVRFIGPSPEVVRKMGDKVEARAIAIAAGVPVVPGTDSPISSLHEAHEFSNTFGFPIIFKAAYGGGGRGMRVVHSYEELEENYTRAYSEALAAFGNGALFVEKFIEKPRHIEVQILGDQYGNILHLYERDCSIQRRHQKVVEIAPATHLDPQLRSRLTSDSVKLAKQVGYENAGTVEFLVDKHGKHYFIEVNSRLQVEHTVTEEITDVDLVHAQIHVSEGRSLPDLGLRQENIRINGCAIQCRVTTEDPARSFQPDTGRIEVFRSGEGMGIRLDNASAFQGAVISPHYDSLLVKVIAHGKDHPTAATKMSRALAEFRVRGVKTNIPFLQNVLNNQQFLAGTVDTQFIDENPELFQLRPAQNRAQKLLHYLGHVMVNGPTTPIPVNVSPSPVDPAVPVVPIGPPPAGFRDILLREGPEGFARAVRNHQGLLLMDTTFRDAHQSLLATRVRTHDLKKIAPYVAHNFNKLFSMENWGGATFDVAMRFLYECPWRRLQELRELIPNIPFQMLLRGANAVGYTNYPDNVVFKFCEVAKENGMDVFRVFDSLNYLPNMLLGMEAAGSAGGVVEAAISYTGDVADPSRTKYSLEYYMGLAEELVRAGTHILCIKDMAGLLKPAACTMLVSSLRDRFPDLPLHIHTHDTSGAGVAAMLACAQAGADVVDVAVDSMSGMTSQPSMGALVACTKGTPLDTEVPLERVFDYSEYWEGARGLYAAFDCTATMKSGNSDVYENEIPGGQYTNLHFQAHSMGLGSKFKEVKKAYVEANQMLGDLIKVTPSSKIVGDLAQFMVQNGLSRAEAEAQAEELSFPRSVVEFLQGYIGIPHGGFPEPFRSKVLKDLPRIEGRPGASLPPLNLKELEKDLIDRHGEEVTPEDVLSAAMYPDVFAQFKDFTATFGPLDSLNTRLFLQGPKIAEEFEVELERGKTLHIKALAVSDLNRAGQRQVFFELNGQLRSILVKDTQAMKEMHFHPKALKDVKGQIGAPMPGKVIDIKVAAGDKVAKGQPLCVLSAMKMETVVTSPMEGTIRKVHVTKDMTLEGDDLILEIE
UniProt Q08288, whole entry: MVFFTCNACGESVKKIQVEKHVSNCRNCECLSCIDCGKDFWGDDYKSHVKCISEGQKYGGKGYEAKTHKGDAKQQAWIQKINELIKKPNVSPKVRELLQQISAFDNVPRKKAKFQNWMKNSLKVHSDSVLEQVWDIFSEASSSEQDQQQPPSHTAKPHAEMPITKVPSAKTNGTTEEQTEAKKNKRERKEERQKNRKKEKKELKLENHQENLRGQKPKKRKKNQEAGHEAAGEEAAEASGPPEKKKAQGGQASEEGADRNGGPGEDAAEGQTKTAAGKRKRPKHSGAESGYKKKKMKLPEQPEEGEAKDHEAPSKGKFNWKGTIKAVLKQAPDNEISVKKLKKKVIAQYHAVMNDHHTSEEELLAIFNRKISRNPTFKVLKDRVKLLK
UniProt Q3U0S6: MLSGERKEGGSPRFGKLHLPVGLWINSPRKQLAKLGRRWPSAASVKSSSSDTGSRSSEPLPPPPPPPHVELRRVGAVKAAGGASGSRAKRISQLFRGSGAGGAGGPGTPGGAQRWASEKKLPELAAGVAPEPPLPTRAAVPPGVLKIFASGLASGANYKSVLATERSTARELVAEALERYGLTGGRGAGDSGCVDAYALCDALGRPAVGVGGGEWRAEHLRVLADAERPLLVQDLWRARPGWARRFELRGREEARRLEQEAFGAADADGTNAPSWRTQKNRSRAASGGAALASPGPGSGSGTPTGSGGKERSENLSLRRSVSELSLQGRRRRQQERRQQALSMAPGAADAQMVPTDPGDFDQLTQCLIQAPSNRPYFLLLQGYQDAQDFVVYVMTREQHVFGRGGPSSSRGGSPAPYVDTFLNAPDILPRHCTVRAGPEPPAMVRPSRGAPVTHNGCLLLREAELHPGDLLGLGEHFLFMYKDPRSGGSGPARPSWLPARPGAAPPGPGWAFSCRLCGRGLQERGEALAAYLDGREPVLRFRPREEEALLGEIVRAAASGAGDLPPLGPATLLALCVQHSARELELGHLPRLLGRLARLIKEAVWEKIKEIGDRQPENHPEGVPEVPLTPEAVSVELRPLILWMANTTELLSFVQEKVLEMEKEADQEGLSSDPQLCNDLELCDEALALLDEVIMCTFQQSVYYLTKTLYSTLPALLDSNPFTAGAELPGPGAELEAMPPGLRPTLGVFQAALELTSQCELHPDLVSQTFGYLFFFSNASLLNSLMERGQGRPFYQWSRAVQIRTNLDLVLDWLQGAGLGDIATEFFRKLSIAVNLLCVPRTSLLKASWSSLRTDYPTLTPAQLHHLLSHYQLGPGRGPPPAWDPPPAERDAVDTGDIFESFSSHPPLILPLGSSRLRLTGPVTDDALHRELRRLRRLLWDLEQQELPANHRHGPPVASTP

Compound: CN[C@@H]1C[C@H]2O[C@@](C)([C@@H]1OC)n1c3ccccc3c3c4c(c5c6ccccc6n2c5c31)C(=O)NC4 [staurosporine]
Test: log2 fold change of pooled soluble protein (PISA), ligand vs vehicle (log2 ratio); higher = more thermally stabilized
Details: ligand concentration: 20 uM; assay format: PISA pool 52.9/55.5/58.6 C

How did the “log2 fold change of pooled soluble protein” value (from here on “log2 fold change”) turn out when UniProt Q14CH1 was run?
Its value is -0.028.

Which “log2 fold change” value does the source give for UniProt Q3UMU9 here?
The value was 0.0238.

For UniProt Q3U0V1, which “log2 fold change” value is on record?
Its value is -0.0269.

UniProt Q00422 was tested. Which “log2 fold change” value did it give?
The value was -0.0481.

With UniProt Q5IRJ6 as the target, how does the “log2 fold change” value read?
Its value is 0.165.

UniProt Q1HFZ0 was tested. Which “log2 fold change” value did it give?
The value was 0.067.

UniProt Q3TCJ1 was tested. Which “log2 fold change” value did it give?
Its value is 0.00159.

For UniProt Q5NCR9, which “log2 fold change” value is on record?
The value was -0.709.

UniProt Q501J6 was tested. Which “log2 fold change” value did it give?
Its value is 0.0939.

Which “log2 fold change” value does the source give for UniProt Q501J7 here?
Its value is 0.0771.

UniProt Q3TC93 was tested. Which “log2 fold change” value did it give?
The value was -0.135.

For UniProt Q3U3R4, which “log2 fold change” value is on record?
The value was -0.013.

For UniProt P97864, which “log2 fold change” value is on record?
The value was 0.148.

For UniProt Q02013, which “log2 fold change” value is on record?
The value was 0.0105.

UniProt Q08879 was tested. Which “log2 fold change” value did it give?
The value was 0.124.

How did the “log2 fold change” value turn out when UniProt Q3UMF0 was run?
Its value is 0.0555.

Which “log2 fold change” value does the source give for UniProt Q31125 here?
Its value is 0.205.

Which “log2 fold change” value does the source give for UniProt Q00724 here?
The value was -0.0123.

With UniProt Q05144 as the target, how does the “log2 fold change” value read?
Its value is 0.0535.

UniProt Q3THG9 was tested. Which “log2 fold change” value did it give?
Its value is 0.0984.

Which “log2 fold change” value does the source give for UniProt Q148V8 here?
Its value is -0.0513.

UniProt Q3TC72 was tested. Which “log2 fold change” value did it give?
The value was -0.507.

UniProt Q3TC33 was tested. Which “log2 fold change” value did it give?
The value was -0.163.

UniProt Q3UNX5 was tested. Which “log2 fold change” value did it give?
Its value is -0.0755.

UniProt Q05920 was tested. Which “log2 fold change” value did it give?
The value was -0.0874.

Which “log2 fold change” value does the source give for UniProt Q3TQB2 here?
Its value is -0.272.

Which “log2 fold change” value does the source give for UniProt Q08288 here?
Its value is 0.00233.

For UniProt P97797, which “log2 fold change” value is on record?
The value was 0.15.

How did the “log2 fold change” value turn out when Q3T9E4;Q62293 was run?
The value was -0.124.

With UniProt Q3TZX3 as the target, how does the “log2 fold change” value read?
Its value is 0.461.

Which “log2 fold change” value does the source give for UniProt Q571E4 here?
Its value is -0.27.

For UniProt Q3UHC7, which “log2 fold change” value is on record?
The value was -0.00031.

How did the “log2 fold change” value turn out when UniProt P98083 was run?
Its value is 0.388.

Which “log2 fold change” value does the source give for UniProt Q14C51 here?
The value was -0.543.

Which “log2 fold change” value does the source give for UniProt Q3U0S6 here?
The value was -0.285.

With UniProt Q3UBX0 as the target, how does the “log2 fold change” value read?
The value was 0.0621.
